Paper PMC12928700, “Structure of the human CTF18−RFC clamp loader bound to PCNA” (eLife, 2026)
Results are given in words; binding and its absence hold for the method and conditions named. Some binding calls cover weakened binding; strength is not graded here.

Molecular target: Ctf18 subunit of human CTF18–RFC (human) (UniProt Q8WVB6)
Assay: co-purification; seven subunits co-expressed in insect cells; lysate over HisTrap HP, then Strep Trap XT (twin-Strep on Ctf18), TEV, Superdex 200; subunits seen by SDS–PAGE

Row | Substance | binding
1 | Ctf8 subunit of human CTF18–RFC (from UniProt P0CG13 1-121) | binds
2 | Dcc1 subunit of human CTF18–RFC (from UniProt Q9BVC3 1-393) | binds
